# B1: cs221: designed hinge protein, SEQ ID NO:10 (protein)
# chain: MSGEMKEEIRRLAEELRERTKDEEVRELAREAARLAEESDDEEVKEVVKKALEAALKSKDEEVIRLLLLAAVLAAAAARSGSPEEKLEIAKKALELAMKSKDEEVIRLALLAAVLAARSDDEEVLKKVKEALEKAMESKDVEEIRERLREAVEVARAGSGSHHWGSTHHHHHH
# Test system: TAMRA-cs221B
# Assay: FP titration and kinetics, hinge vs TAMRA-cs221B
# Format: binding
# Details: absence of peptide; estimated from on rates assuming locked Y variant is 100% in state Y
# Protocol: All FP measurements were performed at 25° C. in 96-well plates (Corning 3686) using a Synergy Neo2™ plate reader and a 530/590 nm filter cube. The buffer for all FP measurements was 20 mM Tris-HCl, 100 mM NaCl, 0.05% v/v TWEEN20 at pH 8. Titrations were carried out in 96-well format, with 4 replicates per plate and 24 data points per titration (23 steps of two-fold serial dilution of hinges in the presence of TAMRA-labeled peptide at a constant concentration between 0.1 nM and 1 nM) with a final sample volume of 80 μl per well. Titration plates were incubated overnight at room temperature before measuring to ensure complete equilibration. The polarization signal S (as calculated by the Neo2™ software) was fitted to the equation
# where fAB is the fraction of peptide that is bound, Atot is the absolute hinge concentration, Btot is the absolute peptide concentration, S0 is the baseline polarization of free peptide, and S1 is the change in polarization upon complex formation.
# Fitting was performed using the scipy.optimize.curve_fit python function (53). Uncertainties for KD values are standard deviation errors calculated from the covariance matrix of the fits. In cases where the fitted KD was lower than the concentration of the labeled peptide Btot, we report the KD as KD<Btot. […]
molecule,measurement,value
B1,fraction of hinge in state X at equilibrium,99.5%
same,fraction of hinge in state Y at equilibrium,0.5%
